In paper PMC7876276 one finds binding data, which are given here for two molecules.

Results are given in words; binding and its absence hold for the method and conditions named. Sequences can lack the tags named with a protein.

The target in the test is T1, LexA-Alk1 (Saccharomyces cerevisiae) (UniProt P43633).
T1 sequence: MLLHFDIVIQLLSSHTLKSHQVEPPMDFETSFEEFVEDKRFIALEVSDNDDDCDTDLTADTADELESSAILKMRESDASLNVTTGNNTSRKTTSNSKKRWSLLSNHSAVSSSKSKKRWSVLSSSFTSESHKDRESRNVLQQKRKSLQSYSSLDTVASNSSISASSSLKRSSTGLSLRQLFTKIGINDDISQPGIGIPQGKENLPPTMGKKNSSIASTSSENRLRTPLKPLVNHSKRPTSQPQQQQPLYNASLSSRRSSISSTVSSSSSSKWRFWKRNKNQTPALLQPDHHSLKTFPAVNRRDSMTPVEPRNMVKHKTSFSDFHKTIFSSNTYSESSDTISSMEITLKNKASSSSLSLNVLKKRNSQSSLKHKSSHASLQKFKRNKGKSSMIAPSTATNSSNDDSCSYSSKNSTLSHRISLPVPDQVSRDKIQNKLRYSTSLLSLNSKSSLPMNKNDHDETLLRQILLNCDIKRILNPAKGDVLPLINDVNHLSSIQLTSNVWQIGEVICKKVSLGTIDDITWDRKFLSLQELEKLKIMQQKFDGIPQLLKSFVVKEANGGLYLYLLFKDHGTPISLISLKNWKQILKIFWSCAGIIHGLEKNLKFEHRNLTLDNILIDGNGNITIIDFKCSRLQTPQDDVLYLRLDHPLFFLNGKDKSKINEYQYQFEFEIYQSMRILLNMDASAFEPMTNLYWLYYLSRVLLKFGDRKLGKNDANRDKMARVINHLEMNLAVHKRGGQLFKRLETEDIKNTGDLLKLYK
As to the kind of experiment: two-hybrid; LexA bait (pEG202) and B42-3HA prey (pJG4-5) in EGY42 yeast with lacZ reporter on pSH18-34; patches on selective raffinose/galactose plates with X-Gal, overnight at 28°C.

B1: B42-3HA-Swe1 (enzyme, UniProt P32944 1-819)
chain: MSSLDEDEEDFEMLDTENLQFMGKKMFGKQAGEDESDDFAIGGSTPTNKLKFYPYSNNKLTRSTGTLNLSLSNTALSEANSKFLGKIEEEEEEEEEGKDEESVDSRIKRWSPFHENESVTTPITKRSAEKTNSPISLKQWNQRWFPKNDARTENTSSSSSYSVAKPNQSAFTSSGLVSKMSMDTSLYPAKLRIPETPVKKSPLVEGRDHKHVHLSSSKNASSSLSVSPLNFVEDNNLQEDLLFSDSPSSKALPSIHVPTIDSSPLSEAKYHAHDRHNNQTNILSPTNSLVTNSSPQTLHSNKFKKIKRARNSVILKNRELTNSLQQFKDDLYGTDENFPPPIIISSHHSTRKNPQPYQFRGRYDNDTDEEISTPTRRKSIIGATSQTHRESRPLSLSSAIVTNTTSAETHSISSTDSSPLNSKRRLISSNKLSANPDSHLFEKFTNVHSIGKGQFSTVYQVTFAQTNKKYAIKAIKPNKYNSLKRILLEIKILNEVTNQITMDQEGKEYIIDYISSWKFQNSYYIMTELCENGNLDGFLQEQVIAKKKRLEDWRIWKIIVELSLALRFIHDSCHIVHLDLKPANVMITFEGNLKLGDFGMATHLPLEDKSFENEGDREYIAPEIISDCTYDYKADIFSLGLMIVEIAANVVLPDNGNAWHKLRSGDLSDAGRLSSTDIHSESLFSDITKVDTNDLFDFERDNISGNSNNAGTSTVHNNSNINNPNMNNGNDNNNVNTAATKNRLILHKSSKIPAWVPKFLIDGESLERIVRWMIEPNYERRPTANQILQTEECLYVEMTRNAGAIIQEDDFGPKPKFFI
Take B1: the binding entry is recorded as “no binding”.

B2: B42-3HA-Mih1 (enzyme, UniProt P23748 1-554)
chain: MNNIFHGTEDECANEDVLSFQKISLKSPFGKKKNIFRNVQTFFKSKSKHSNVDDDLINKENLAFDKSPLLTNHRSKEIDGPSPNIKQLGHRDELDENENENDDIVLSMHFASQTLQSPTRNSSRRSLTNNRDNDLLSRIKYPGSPQRSSSFSRSRSLSRKPSMNSSSNSSRRVQRQDGKIPRSSRKSSQKFSNITQNTLNFTSASSSPLAPNSVGVKCFESCLAKTQIPYYYDDRNSNDFFPRISPETLKNILQNNMCESFYNSCRIIDCRFEYEYTGGHIINSVNIHSRDELEYEFIHKVLHSDTSNNNTLPTLLIIHCEFSSHRGPSLASHLRNCDRIINQDHYPKLFYPDILILDGGYKAVFDNFPELCYPRQYVGMNSQENLLNCEQEMDKFRRESKRFATKNNSFRKLASPSNPNFFYRDSHQSSTTMASSALSFRFEPPPKLSLNHRRVSSGSSLNSSESTGDENFFPILSKSSMSSNSNLSTSHMLLMDGLDTPSYFSFEDERGNHQQVSGDEEQDGDFTFVGSDREDLPRPARRSLFPSLETEDKK
As for B2, the binding entry was “no binding”.
